Measured data: PubChem BioAssay AID504774 (Drosophila RNAi Screening Center, 2011)

- Screen: 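Fly genes whose loss alters survival after alkylation damage to DNA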 (primary screen)
- Cells: Drosophila Kc167 cells
- Reagents: long dsRNA against Drosophila genes, about 0.25 µg dsRNA per well
- Timing: about 6 days: 3 days knock-down, then 3 days with or without MMS
- Treatment: methyl methanesulphonate 0.004% (w/v) for 3 days after knock-down
- Detection: 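ATP-dependent luminescence as a measure of live cells in MMS-exposed wells, quantile normalised within each plate, with replicate values also given as a mean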
- Scale: mean viability with MMS and viability with MMS: higher = more surviving cells after MMS
In all, the deposit lists about 23,000 reagents; below is a random part of those that have a named target and a result. 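Values are quantile-normalised luminescence on an arbitrary scale; higher means more cells surviving MMS.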 Names joined by + are all predicted targets of the reagent.

Gene,dsRNA,mean viability with MMS,"viability with MMS, replicate 1","viability with MMS, replicate 2"
Mzt1 (GeneID 10178948),DRSC07979,3.47e6,3.96e6,3.89e6
ItgaPS4 (GeneID 36693),DRSC06630,3.47e6,4.09e6,3.82e6
aus (GeneID 42531),DRSC13471,3.48e6,3.92e6,3.98e6
aus (GeneID 42531),DRSC13473,3.62e6,4.07e6,4.12e6
aus (GeneID 42531),DRSC15157,3.30e6,3.74e6,3.76e6
CG12880 (GeneID 43328),DRSC14568,3.55e6,4.08e6,4.00e6
Notum (GeneID 39751),DRSC09959,3.45e6,3.94e6,3.85e6
Nedd4 (GeneID 39958),DRSC11234,3.53e6,3.90e6,4.10e6
Nedd4 (GeneID 39958),DRSC21548,3.47e6,4.00e6,3.91e6
nom (GeneID 41038),DRSC16389,3.61e6,4.15e6,4.04e6
Arc2 (GeneID 36597),DRSC06436,3.43e6,3.94e6,3.97e6
Cyp4p1 (GeneID 45524),DRSC07372,3.77e6,4.15e6,4.20e6
Cfp1 (GeneID 31880),DRSC18128,3.09e6,3.59e6,3.78e6
Mob3 (GeneID 34372),DRSC02791,3.40e6,4.02e6,3.64e6
Cftr (GeneID 42928),DRSC15872,3.64e6,4.11e6,4.11e6
CG42686 (retired record) (GeneID 42674),DRSC15247,2.87e6,3.57e6,3.55e6
CG42686 (retired record) (GeneID 42674),DRSC15248,3.65e6,4.20e6,4.07e6
CG42686 (retired record) (GeneID 42674),DRSC22995,3.57e6,3.91e6,4.20e6
pim (GeneID 34404),DRSC03591,3.29e6,3.64e6,3.75e6
Ubx (GeneID 42034),DRSC16891,3.68e6,4.25e6,4.13e6
CG30039 (GeneID 246411),DRSC21794,3.40e6,3.91e6,3.87e6
CG4511 (GeneID 41305),DRSC15589,3.48e6,3.94e6,3.98e6
Coq6 (GeneID 33777),DRSC03040,3.67e6,4.06e6,4.31e6
Glg1 (GeneID 40382),DRSC11815,3.61e6,4.02e6,4.15e6
Glg1 (GeneID 40382),DRSC11816,3.45e6,3.81e6,3.97e6
Glg1 (GeneID 40382),DRSC11817,3.60e6,4.11e6,4.05e6
Gr85a (GeneID 117475),DRSC12760,3.64e6,4.31e6,3.89e6
AstC-R1 (GeneID 40020),DRSC10799,3.40e6,3.77e6,3.89e6
Drip (GeneID 36236),DRSC07405,3.74e6,4.07e6,4.47e6
pea (GeneID 36561),DRSC07120,3.25e6,3.72e6,3.71e6
stol (GeneID 34921),DRSC01956,3.48e6,3.93e6,3.98e6
Mgtor (GeneID 36264),DRSC05958,3.50e6,4.06e6,3.86e6
Ndg (GeneID 36089),DRSC06223,3.47e6,3.96e6,3.87e6
Sf3b5 (GeneID 50007),DRSC14460,3.19e6,3.71e6,3.68e6
Adgf-E (GeneID 36627),DRSC05973,3.65e6,4.30e6,4.02e6
CG15653 (GeneID 37388),DRSC04244,3.34e6,3.73e6,3.79e6
Clk (GeneID 38872),DRSC11117,3.49e6,4.00e6,3.94e6
MrgBP (GeneID 35880),DRSC06417,3.52e6,3.97e6,4.01e6
hpo (GeneID 37247),DRSC06065,3.57e6,4.05e6,4.05e6
bai (GeneID 42996),DRSC14388,3.79e6,4.22e6,4.36e6
CG42260 (GeneID 37614),DRSC03953,3.83e6,4.42e6,4.28e6
CG42260 (GeneID 37614),DRSC04172,3.71e6,4.29e6,4.08e6
CG42260 (GeneID 37614),DRSC04385,3.77e6,4.31e6,4.18e6
chp (GeneID 43690),DRSC16925,3.42e6,3.93e6,3.84e6
Top1 (GeneID 32458),DRSC20295,3.44e6,3.97e6,3.80e6
CG5250 (GeneID 42308),DRSC15752,3.53e6,4.13e6,3.89e6
CG9676 (GeneID 32647),DRSC20204,3.53e6,3.95e6,4.06e6
Obp73a (GeneID 2768955),DRSC09907,3.56e6,4.03e6,4.04e6
CG3281 (GeneID 41445),DRSC15470,3.53e6,3.95e6,4.05e6
CG30177 (GeneID 246500),DRSC22680,3.48e6,3.99e6,3.94e6
CG32160 (retired record) (GeneID 317889),DRSC22904,3.57e6,4.05e6,4.01e6
jbug (GeneID 43997),DRSC03952,3.47e6,4.00e6,3.88e6
jbug (GeneID 43997),DRSC04114,3.56e6,4.06e6,4.09e6
jbug (GeneID 43997),DRSC04167,3.77e6,3.83e6,4.66e6
jbug (GeneID 43997),DRSC04388,3.61e6,3.99e6,4.20e6
Obp83g (GeneID 170878),DRSC12269,3.57e6,4.04e6,4.06e6
CG3880 (GeneID 37957),DRSC04428,3.54e6,4.06e6,3.98e6
CG3880 (GeneID 37957),DRSC21404,3.51e6,4.05e6,3.94e6
CG13002 (GeneID 32681),DRSC19521,3.44e6,3.88e6,3.90e6
CG42342 (GeneID 7354466),DRSC13165,3.65e6,4.12e6,4.09e6
CG42342 (GeneID 7354466),DRSC14378,8.84e5,3.43e6,3.43e6
CG42342 (GeneID 7354466),DRSC15010,3.66e6,4.19e6,4.13e6
CG42342 (GeneID 7354466),DRSC15011,3.55e6,4.06e6,4.01e6
CG42342 (GeneID 7354466),DRSC15012,3.47e6,3.87e6,4.00e6
CG42342 (GeneID 7354466),DRSC21791,3.56e6,4.03e6,4.07e6
CG42342 (GeneID 7354466),DRSC22861,3.39e6,3.86e6,3.93e6
CG42342 (GeneID 7354466),DRSC23112,3.59e6,4.11e6,4.04e6
Marcal1 (GeneID 33709),DRSC02718,3.50e6,4.04e6,3.90e6
CG42375 + CG9288,DRSC16468,3.40e6,3.85e6,3.82e6
CG5913 (GeneID 43132),DRSC15916,3.61e6,4.03e6,4.17e6
CG11134 (GeneID 32334),DRSC19384,1.98e6,4.16e6,4.09e6
CG14929 + CG4970 + CG14930,DRSC02412,3.52e6,3.98e6,4.02e6
CG17508 (GeneID 49893),DRSC07771,3.70e6,4.20e6,4.11e6
CG9436 (GeneID 35586),DRSC05005,3.73e6,4.25e6,4.00e6
CG3609 (GeneID 33421),DRSC00620,3.52e6,4.05e6,3.93e6
loopin-1 (GeneID 36847),DRSC06888,3.57e6,4.10e6,3.98e6
CG2972 (GeneID 31943),DRSC18250,3.42e6,3.85e6,3.96e6
CG17122 (GeneID 40226),DRSC10245,3.66e6,4.12e6,4.14e6
CG6225 (GeneID 41559),DRSC15996,3.46e6,3.94e6,3.94e6
aop (GeneID 33392),DRSC00801,2.90e6,3.40e6,3.41e6
aop (GeneID 33392),DRSC22999,3.40e6,3.77e6,3.96e6
HDAC11 (GeneID 326120),DRSC14280,3.48e6,3.96e6,3.91e6
sordd2 + sordd1,DRSC20136,3.50e6,3.76e6,4.08e6
CG32643 (GeneID 318138),DRSC18962,3.47e6,3.98e6,3.92e6
Fatp2 (GeneID 37657),DRSC03971,3.35e6,3.78e6,3.85e6
Fatp2 (GeneID 37657),DRSC04178,3.84e6,4.41e6,4.18e6
Fatp2 (GeneID 37657),DRSC04330,3.60e6,4.14e6,4.02e6

11 entries from above, sorted by “viability with MMS, replicate 1”, descending:
Gene,dsRNA,mean viability with MMS,"viability with MMS, replicate 1","viability with MMS, replicate 2"
Fatp2 (GeneID 37657),DRSC04178,3.84e6,4.41e6,4.18e6
Fatp2 (GeneID 37657),DRSC04330,3.60e6,4.14e6,4.02e6
CG17122 (GeneID 40226),DRSC10245,3.66e6,4.12e6,4.14e6
CG32643 (GeneID 318138),DRSC18962,3.47e6,3.98e6,3.92e6
HDAC11 (GeneID 326120),DRSC14280,3.48e6,3.96e6,3.91e6
CG6225 (GeneID 41559),DRSC15996,3.46e6,3.94e6,3.94e6
CG2972 (GeneID 31943),DRSC18250,3.42e6,3.85e6,3.96e6
Fatp2 (GeneID 37657),DRSC03971,3.35e6,3.78e6,3.85e6
aop (GeneID 33392),DRSC22999,3.40e6,3.77e6,3.96e6
sordd2 + sordd1,DRSC20136,3.50e6,3.76e6,4.08e6
aop (GeneID 33392),DRSC00801,2.90e6,3.40e6,3.41e6
